The values below come from article PMC7862700.

Protein sequences, listed by entry. Tags and fused reporters are not part of them. Lines headed by an entry give the natural chain unless they say otherwise; changes in a name come on top.
UniProt O43186: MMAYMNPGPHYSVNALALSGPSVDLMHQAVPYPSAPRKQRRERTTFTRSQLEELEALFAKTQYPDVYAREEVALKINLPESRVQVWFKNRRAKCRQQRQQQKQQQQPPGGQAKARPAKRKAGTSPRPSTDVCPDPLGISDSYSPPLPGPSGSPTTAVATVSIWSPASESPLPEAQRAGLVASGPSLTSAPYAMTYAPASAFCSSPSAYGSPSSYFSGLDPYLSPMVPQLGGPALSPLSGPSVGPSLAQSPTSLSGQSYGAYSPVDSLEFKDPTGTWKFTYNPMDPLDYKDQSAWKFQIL

This is a selection; strong and weak results do not stand in their true shares. At the low end of the ranking, values are background and their order means little.

The test addresses CRX (UniProt O43186). In words: DAPPL (digital affinity profiling via proximity ligation, sequencing). The following applies: 10 mM Tris-HCl pH 7.5, 50 mM NaCl, 1 mM DTT, 4% glycerol, room temperature, 30 min; GST-TFs on glutathione beads, 16-mer random dsDNA library, 0.1% …; high values mean tight binding; double strand, one strand shown; scale: fold enrichment (6-mer frequency, TF over GST control).
With TACACT, the binding signal turned out to be 1.35.

In turn, CTCCCA came in with a binding signal of 1.19.

ACCCCC had a binding signal of 0.985.

In the case of ACTCAA, the binding signal was 1.12.

GGATGT yielded a binding signal of 0.828.

With GCCCAT, the binding signal came out at 0.892.

In turn, ACACAT displayed a binding signal of 0.945.

The sequence TTCATG registered a binding signal of 1.16.

In the case of ACGTTG, the binding signal was determined as 0.861.

As for CGCACG, the binding signal came to 0.764.

In turn, AGCGTC gave a binding signal of 0.856.

TCTATT: the binding signal came out at 1.37.

Take AACTAT: the binding signal is 1.26.

As to GTTATG, the binding signal was found to be 0.891.

The sequence CGGTAT returned a binding signal of 0.822.

The sequence GCCTGC displayed a binding signal of 0.849.

Turning to CGGATT, the binding signal was 2.48.

For the sequence GTTGTT, the binding signal turned out to be 0.939.

As for TGGATA, the binding signal came to 1.34.

CCGCTG displayed a binding signal of 0.876.

In turn, ATGCTG came in with a binding signal of 0.966.

CGATAG yielded a binding signal of 0.979.

TATCTG registered a binding signal of 1.46.

TCATCT: the binding signal came out at 1.5.

On to GAAGTG, for which the binding signal stood at 0.638.

With ACACCC, the binding signal worked out at 0.908.

CCTTGT gave a binding signal of 0.919.

AACTTG showed a binding signal of 0.977.

Consider CGTCTT, for which the binding signal is 1.5.

Sequence ATGCCA returned a binding signal of 0.887.

The sequence GTACCT had a binding signal of 0.906.

For GAATTG, the binding signal is 0.942.

Sequence ATGGGG registered a binding signal of 1.03.

In turn, GTATAC displayed a binding signal of 0.952.

The sequence TTCCCA displayed a binding signal of 1.16.

The sequence GTAATT gave a binding signal of 1.59.

As to CTTAGT, the binding signal was 1.98.

CTCGAA registered a binding signal of 1.9.

TTTCCC registered a binding signal of 1.43.
